# Data reported in PubChem BioAssay AID1347075 (National Center for Advancing Translational Sciences (NCATS), 2019).
# In all, about 400,000 compounds went through this assay and about 5,500 (1.4%) were called active. The inconclusive results got no clear call from the source; some entries with a clear call stand among them for comparison. The call rests on the fitted dose curve; in most records, active means well fitted cell-killing curve with a large enough effect; inconclusive means small, poorly fitted or top-dose-only effect, or effect the other way; inactive means flat fitted curve, though single readings scatter. Where the call is inconclusive, the potency comes from a doubtful curve fit.
# Experiment: qHTS assay for MDR1-selective chemotherapeutics: Primary screen using the parental adenocarcinoma cell KB-3-1; further: nearly all actives have a fitted effect of over 60% in size
# Conditions: KB-3-1 viability, CellTiter-Glo ATP luminescence, 72 h; activity change, negative = cytotoxic: at 46.1 µM (top of the series)
# How it was run: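 72 h, 37 °C compound treatment of KB-3-1 parental cells; CellTiter-Glo added, 10 min, luminescence read. Data corrected against DMSO-only plates and normalized before curve fitting.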
# On the % scale 0 is the no-effect control and ±100 the full control effect; potency means the concentration at half of the fitted maximal effect.
SMILES,Potency,"activity change, negative = cytotoxic"
O=C(NCCSSCCNC(=O)c1ccccc1)c1ccccc1,"inconclusive: 29.1 µM [cytotoxic, single point]",–
CCN(CC)C(=O)c1nc[nH]c1C(=O)N1CCc2ccccc2C1,"inconclusive: 0.0065 µM [rising, full curve, poor fit]",–
CN(C)S(=O)(=O)c1cccc(NC(=O)CSc2nncn2-c2ccccc2)c1,"inconclusive: 29.1 µM [cytotoxic, single point]",–
CCN(CC)c1ccc(C(=O)OCc2cc(=O)oc3cc(O)ccc23)cc1,"inconclusive: 18.4 µM [cytotoxic, single point]",–
O=C(C[n+]1ccccc1Br)c1ccc(O)c(O)c1,"inconclusive: 9.2 µM [rising, partial curve]",–
Cc1ccc(C)c(N2N=C(C(=O)Nc3cccc(S(=O)(=O)N4CCCCC4)c3)CCC2=O)c1,"inconclusive: 23.1 µM [cytotoxic, single point]",–
Cc1nnc2sc(-c3cccc(NC(=O)c4cccnc4)c3)nn12,"inconclusive: 29.1 µM [rising, single point]",–
COc1ccc(NC(=O)c2cc(S(=O)(=O)NCCC3=CCCCC3)ccc2F)cc1,"inconclusive: 16.4 µM [cytotoxic, single point]",–
COc1ccc(C(C)(C)C)cc1NC(=O)c1[nH]c(C)c(C(C)=O)c1C,"inconclusive: 29.1 µM [cytotoxic, single point]",–
COc1ccc(N2CCN(C(=O)c3cc4c(s3)-c3ccccc3S(=O)(=O)C4)CC2)cc1,–,inactive: -7.97%
Cc1cc(C)cc(C(=O)OCC(=O)NCc2ccco2)c1,"inconclusive: 29.1 µM [cytotoxic, single point]",–
CC(=O)Nc1ccc(CCNC(=O)c2ccc3ccccc3c2O)cc1,"inconclusive: 7.31 µM [cytotoxic, full curve, poor fit]",–
COc1ccc2nc(C)cc(SCC(=O)N/N=C/c3ccc(O)cc3O)c2c1,–,inactive: 0%
O=C(C[n+]1cc(-c2ccc(Cl)cc2)n2c1CCCCC2)c1ccccc1,"inconclusive: 16.4 µM [cytotoxic, partial curve]",–
CCCCCC(=O)N(c1ccc(OCC)cc1)S(=O)(=O)c1ccc2c(c1)n(C)c(=O)n2C,–,inactive: 5.44%
CC(C)C(=O)Nc1csc(C(F)(F)F)c1-c1ccccc1,"inconclusive: 29.1 µM [cytotoxic, single point]",–
COC(=O)c1c(NC(=O)CSc2ncnc3c2cnn3-c2ccccc2Cl)sc2c1CCCC2,"inconclusive: 29.1 µM [cytotoxic, single point]",–
CNC(=O)c1c(O)c2cccc3c2n(c1=O)CCC3,"inconclusive: 18.4 µM [cytotoxic, single point]",–
COc1ccccc1CNc1nc(NCc2ccccc2OC)c2sccc2n1,"inconclusive: 29.1 µM [cytotoxic, single point]",–
CC(Sc1nnc(Cc2cccs2)n1C1CCCCC1)C(=O)N1CCc2ccccc21 (stereo not given),"inconclusive: 29.1 µM [cytotoxic, single point]",–
Cc1ccncc1CNC(=O)c1ccccc1,–,inactive: -18.4%
COCCCN1C(=O)C(=O)/C(=C(/O)c2ccc(OC(C)C)cc2)C1c1ccc(O)c(OC)c1 (stereo not given),–,inconclusive: -0.551%
C[C@@H](O)CNC(=O)c1[nH]cnc1C(=O)Nc1cccc(Cl)c1,"inconclusive: 0.206 µM [rising, full curve]",–

# A different layout for part of the listing above:
SMILES	Potency	activity change, negative = cytotoxic
CCN(CC)C(=O)c1nc[nH]c1C(=O)N1CCc2ccccc2C1	inconclusive: 0.0065 µM [rising, full curve, poor fit]	–
CN(C)S(=O)(=O)c1cccc(NC(=O)CSc2nncn2-c2ccccc2)c1	inconclusive: 29.1 µM [cytotoxic, single point]	–
CCN(CC)c1ccc(C(=O)OCc2cc(=O)oc3cc(O)ccc23)cc1	inconclusive: 18.4 µM [cytotoxic, single point]	–

# Continued.

SMILES,Potency,"activity change, negative = cytotoxic"
COc1ccc(N2CCN(c3ccc(NC(=O)C4CCCCC4)cc3C#N)CC2)cc1,–,inactive: 22.7%
COc1ccc(CCn2c(C3CCCCC3)nc3c(c(=O)c4ccccc4n3C)c2=O)cc1,"inconclusive: 29.1 µM [cytotoxic, single point]",–
COc1ccc(CCNC(=O)c2ccc3ccccc3n2)cc1OC,"inconclusive: 16.4 µM [rising, single point]",–
CSCCC(NC(=O)c1ccccc1Br)C(=O)N1CCN(C/C=C/c2ccccc2)CC1 (stereo not given),–,inactive: -66.9%
FC(F)(F)c1cccc(NC(=S)N(CCCN2CCCC2)Cc2cccn2Cc2ccc(Cl)cc2)c1,"inconclusive: 29.1 µM [cytotoxic, single point]",–
O=C(Nc1ccc[n+](CC(=O)c2cccc3ccccc23)c1)c1ccccc1,active: 23.1 µM,–
O=C(c1cc(S(=O)(=O)N2CCN(c3ccccc3)CC2)ccc1Cl)N1CCCCCCC1,"inconclusive: 23.1 µM [cytotoxic, single point]",–
Cc1cccc(COC[C@H](Cc2ccccc2)N2CCN(C(=O)c3cccc(Cl)c3)CCC2=O)c1,"inconclusive: 25.9 µM [cytotoxic, single point]",–
COc1ccc(CCN2C(=O)NC(NS(=O)(=O)c3ccc(N)cc3)(C(F)(F)F)C2=O)cc1OC (stereo not given),–,inactive: -1.57%
CCCCNC1CCS(=O)(=O)C1 (stereo not given),–,inactive: -3.23%
O=C(c1ccccc1)c1n[nH]c(-c2ccccc2)cc1=O,–,inactive: 2.81%
CC#CCOC(=O)c1c(C)nc2sc3c(c2c1N)CC[C@@H](O)C3,–,inconclusive: -59.3%
O=C(c1cc(F)ccc1F)C1CCCN(C(=O)c2ccc(F)cc2Cl)C1 (stereo not given),–,inactive: 2.23%
Cc1ccc(Cl)cc1N1CCN(S(=O)(=O)c2ccc3oc(=O)c4ncn(C)c4c3c2)CC1,–,inactive: 0.533%
C/C(=N/NC(=O)c1cccs1)c1ccc(NC(=O)COc2ccc(Cl)cc2)cc1,"inconclusive: 11.6 µM [cytotoxic, partial curve]",–
CC(=NO)C1CCC2C3CCC4=CC(=NO)CCC4(C)C3C(=O)CC12C (stereo not given),"inconclusive: 29.1 µM [cytotoxic, single point]",–
CN1CCN(C(=O)CCN2C(=O)/C(=C\c3ccc(F)cc3)SC2=S)CC1,"inconclusive: 16.4 µM [cytotoxic, single point]",–
CC(C)OCCCn1c(=O)c2ccccc2n2c(-c3ccc(F)c(F)c3)nnc12,–,inactive: -0.801%
CC12CCC(C(=O)N(CC3CO3)C1=O)C2(C)C (stereo not given),–,inactive: 6.54%
COc1ccc(C)cc1S(=O)(=O)n1c([N+](=O)[O-])cnc1C,–,inactive: 10.6%
CC(C)CNC(=O)c1cccc(NC(=O)CCc2ccccc2)c1,–,inactive: 2.38%
O=C1N[C@@H](Cc2ccccc2)COC(=O)[C@H](Cc2ccc(F)cc2)C/C=C\C[C@@H]1CC(=O)N(CCO)Cc1ccccc1,"inconclusive: 29.1 µM [cytotoxic, single point]",–
